Reference: PubChem BioAssay AID1259405 (NCATS, 2018)
This is an unselected part of about 50,000 reagents tested. In the full data, about 4,000 (8%) got an active call. 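Mouse siRNA library applied to hamster cells; one well for each siRNA.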 Reagents against one gene are numbered here.

Purpose: 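Mouse-designed siRNAs used to find CHO productivity engineering targets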 (primary screen)
System: Chinese hamster CHO-K1 ovary cells with stable secreted eGFP expression
Reagent: single siRNA against mouse genes, 0.8 pmol siRNA per well (2 µl of 400 nM stock)
Time to read-out: 3 days
Read-out: 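Percent of the per-plate non-targeting control median for intracellular GFP per well by laser scanning cytometry and for cell viability by ATP luminescence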
Scale: GFP, % of control: higher = more GFP per well, higher productivity; viability (ATP), % of control: higher = more viable cells (more ATP)
Active means: 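Called active when intracellular GFP, relative to negative control, is at or above 120%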

Naa10 (N(alpha)-acetyltransferase 10, NatA catalytic subunit) #1
- GFP, % of control: 58.7
- viability (ATP), % of control: 68.6
- activity call: inactive

Naa10 (N(alpha)-acetyltransferase 10, NatA catalytic subunit) #2
- GFP, % of control: 77.5
- viability (ATP), % of control: 89.4
- activity call: inactive

Naa10 (N(alpha)-acetyltransferase 10, NatA catalytic subunit) #3
- GFP, % of control: 89.1
- viability (ATP), % of control: 87.2
- activity call: inactive

Or8i2 (olfactory receptor family 8 subfamily I member 2) #1
- GFP, % of control: 57.3
- viability (ATP), % of control: 49.6
- activity call: inactive

Or8i2 (olfactory receptor family 8 subfamily I member 2) #2
- GFP, % of control: 95.3
- viability (ATP), % of control: 93.3
- activity call: inactive

Or8i2 (olfactory receptor family 8 subfamily I member 2) #3
- GFP, % of control: 78.8
- viability (ATP), % of control: 80.3
- activity call: inactive

Nrap (nebulin-related anchoring protein) #1
- GFP, % of control: 93.5
- viability (ATP), % of control: 56.4
- activity call: inactive

Nrap (nebulin-related anchoring protein) #2
- GFP, % of control: 80.6
- viability (ATP), % of control: 72.9
- activity call: inactive

Nrap (nebulin-related anchoring protein) #3
- GFP, % of control: 150
- viability (ATP), % of control: 68.2
- activity call: active

Mier1 (MEIR1 treanscription regulator) #1
- GFP, % of control: 37
- viability (ATP), % of control: 74.5
- activity call: inactive

Mier1 (MEIR1 treanscription regulator) #2
- GFP, % of control: 104
- viability (ATP), % of control: 79.5
- activity call: inactive

Pdk3 (pyruvate dehydrogenase kinase, isoenzyme 3)
- GFP, % of control: 72.2
- viability (ATP), % of control: 60.9
- activity call: inactive

Fgf17 (fibroblast growth factor 17) #1
- GFP, % of control: 74.8
- viability (ATP), % of control: 75.5
- activity call: inactive

Fgf17 (fibroblast growth factor 17) #2
- GFP, % of control: 80.6
- viability (ATP), % of control: 82.4
- activity call: inactive

Fgf17 (fibroblast growth factor 17) #3
- GFP, % of control: 66.4
- viability (ATP), % of control: 66.8
- activity call: inactive

Nhlrc3 (NHL repeat containing 3) #1
- GFP, % of control: 117
- viability (ATP), % of control: 83.7
- activity call: inactive

Nhlrc3 (NHL repeat containing 3) #2
- GFP, % of control: 70.2
- viability (ATP), % of control: 78.5
- activity call: inactive

Nhlrc3 (NHL repeat containing 3) #3
- GFP, % of control: 107
- viability (ATP), % of control: 94.1
- activity call: inactive

Reagents listed above with an active call (1):
Nrap (nebulin-related anchoring protein) #3
- GFP, % of control: 150
- viability (ATP), % of control: 68.2
- activity call: active

More results:
Apba2 (amyloid beta precursor protein binding family A member 2) #1
- GFP, % of control: 73.7
- viability (ATP), % of control: 85.3
- activity call: inactive

Apba2 (amyloid beta precursor protein binding family A member 2) #2
- GFP, % of control: 96.5
- viability (ATP), % of control: 68.7
- activity call: inactive

Abhd17b (abhydrolase domain containing 17B) #1
- GFP, % of control: 119
- viability (ATP), % of control: 78.7
- activity call: inactive

Abhd17b (abhydrolase domain containing 17B) #2
- GFP, % of control: 76.4
- viability (ATP), % of control: 77.6
- activity call: inactive

Abhd17b (abhydrolase domain containing 17B) #3
- GFP, % of control: 118
- viability (ATP), % of control: 113
- activity call: inactive

Rhoa (ras homolog family member A) #1
- GFP, % of control: 68.2
- viability (ATP), % of control: 90.8
- activity call: inactive

Rhoa (ras homolog family member A) #2
- GFP, % of control: 97.4
- viability (ATP), % of control: 105
- activity call: inactive

Rhoa (ras homolog family member A) #3
- GFP, % of control: 51.8
- viability (ATP), % of control: 82.3
- activity call: inactive

Pros1 (protein S (alpha)) #1
- GFP, % of control: 48.8
- viability (ATP), % of control: 77.1
- activity call: inactive

Pros1 (protein S (alpha)) #2
- GFP, % of control: 88.2
- viability (ATP), % of control: 92.2
- activity call: inactive

Edn1 (endothelin 1) #1
- GFP, % of control: 48.7
- viability (ATP), % of control: 73.1
- activity call: inactive

Edn1 (endothelin 1) #2
- GFP, % of control: 61
- viability (ATP), % of control: 68.4
- activity call: inactive

Edn1 (endothelin 1) #3
- GFP, % of control: 42
- viability (ATP), % of control: 69.3
- activity call: inactive

Rhbdf1 (rhomboid 5 homolog 1) #1
- GFP, % of control: 93.6
- viability (ATP), % of control: 70.2
- activity call: inactive

Rhbdf1 (rhomboid 5 homolog 1) #2
- GFP, % of control: 74.4
- viability (ATP), % of control: 128
- activity call: inactive

Rhbdf1 (rhomboid 5 homolog 1) #3
- GFP, % of control: 63.1
- viability (ATP), % of control: 28.7
- activity call: inactive

Klk6 (kallikrein related-peptidase 6) #1
- GFP, % of control: 99.6
- viability (ATP), % of control: 89
- activity call: inactive

Klk6 (kallikrein related-peptidase 6) #2
- GFP, % of control: 95.9
- viability (ATP), % of control: 59.6
- activity call: inactive

Klk6 (kallikrein related-peptidase 6) #3
- GFP, % of control: 125
- viability (ATP), % of control: 89.4
- activity call: active

Exosc6 (exosome component 6) #1
- GFP, % of control: 62.3
- viability (ATP), % of control: 79
- activity call: inactive

Exosc6 (exosome component 6) #2
- GFP, % of control: 39.8
- viability (ATP), % of control: 50.9
- activity call: inactive

Exosc6 (exosome component 6) #3
- GFP, % of control: 89.4
- viability (ATP), % of control: 112
- activity call: inactive
